Results from publication doi:10.64898/2025.12.23.696137.
Like-named read-outs stand apart in the source and are kept apart here. These are yes or no findings as the source states them, for the method shown. Binding seen in cells or lysates may run through a third protein. Some results given as binding are weak or reduced against the parent protein; the word gives no strength.

Sequences of proteins named here, by UniProt entry; tags and fusion partners are left off. Residues count along the entry.
UniProt Q9EPL4, residues 19-318: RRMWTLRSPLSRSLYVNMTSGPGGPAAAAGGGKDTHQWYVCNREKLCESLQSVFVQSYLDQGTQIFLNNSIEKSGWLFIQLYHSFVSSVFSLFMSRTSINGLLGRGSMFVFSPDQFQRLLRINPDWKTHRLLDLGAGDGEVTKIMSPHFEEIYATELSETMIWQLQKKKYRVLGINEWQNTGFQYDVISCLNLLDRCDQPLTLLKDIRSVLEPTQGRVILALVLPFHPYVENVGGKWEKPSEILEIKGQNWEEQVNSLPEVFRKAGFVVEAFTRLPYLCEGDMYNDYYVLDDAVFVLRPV

Experiments:
[1] = target: METTL9-FLAG wild type (mouse) (mouse) (UniProt Q9EPL4); test: co-IP
[2] = target: METTL9-FLAG wild type (mouse) (mouse) (UniProt Q9EPL4); test: co-IP; remark: listed apart in the source

binding [1]: binds | binding [2]: binds
Substance: METTL9-FLAG wild type (mouse) (from UniProt Q9EPL4 19-318) (enzyme)
